Part of at least one peptide drawing is inferred or uncertain, most often the ends. Residues, ends and D or L forms follow the SMILES beside them. No end group written: not given here.
Key:
TNF-α = test: Inhibition of LPS induced TNF-α response in THP-1 cells (ELISA); assay type: cell-based, human; conditions: for inhibition of LPS induced TNF-α response: low μM concentrations; for EC50: peptide 1 hour then LPS 0.1 μg/ml for 6 hours, 50% reduction of TNFα vs only LPS, read-out: Anti-TNFα EC50
Procedure: FIG. 12. Antiinnflammatory response measured as inhibition of tumor necrosis factor alpha (TNF-α) response in THP-1 cells after stimulation with LPS. THP-1 cells (1×10^6 cells/ml) were treated with P17 derivates in different concentrations for 1 hour, and subsequently stimulated with 100 ng/ml LPS for 6 hours. LPS was used as control for induction of TNF-α. (set as 100% response), RPMI media was used as negative (non-stimulated) control, and cycloheximide (Chx, 10 μg/ml) was used as a an inhibitory control for LPS induced TNF-α. The data presented are the average of two parallells. (A) The effect of the peptides P17 HC and P17 HC (1-20). (B) The effect of the peptides P17 HC (11-20) and P17 HC-Br.
The THP-1 cells (ATCC, TIB-202) were maintained in suspension in RPMI-1640 medium with 25 mM HEPES and 2 mM Glutamax I supplemented with 10% FBS (growth medium) in a humidified atmosphere of 5% CO2 at 37° C. Cells to be used in the assay were grown to a density of 8×10^5-1×10^6 cells/ml. The cells were centrifuged for 7 min at 200 g and the cell pellet was resuspended to a concentration of 10^6 cells/ml in RPMI-1640 with 10% FBS.
To allow examination of antiinflammatory effects of the peptides on basal and stimulated cytokine production, peptide-treated macrophages were cultured in the presence of LPS and the levels of TNF-α were measured. The primary screening was based on a mammalian cell line; the human THP-1 line. This line is of monocyte/macrophage origin and responds to various stimuli by increased production of cytokines, like TNF-α and the IL-1β, (Wang et al. 2000). To induce monocyte-macrophage differentiation, THP-1 cells were cultured in 96-well culture plates (10^6 cells/well) in a volume of 100 μl RPMI 1640 medium, containing 50 ng/ml PMA (which is known to induce the maturation of monocytes) and incubated in a humidified atmosphere of 5% CO2, at 37° C. for 48 hours. The medium was then removed and the cells were washed with PBS, added 100 μl fresh medium (without PMA) and incubated for another 24 hours. Medium was removed and the adherent macrophages were treated with 100 μl of peptide solution (concentrations ranging from 0 to 400 μg/ml), diluted in RPMI-1640 medium with 25 mM HEPES and 2 mM Glutamax I, but without […] (assay medium). After incubation at 37° C. for 1 hour, the cells were added LPS (0.1 μg/ml) and further incubated for 6 hours. Cycloheximide (Chx, 10 μg/ml) was used as a an inhibitory control for LPS induced TNF-α, whereas PMA (50 ng/ml) and LPS (0.1 μg/ml) were used as controls for induction TNF-α. RPMI media was used as negative, unstimulated control. After incubation, the media (supernatant) was transferred to new 96-well culture plates and kept frozen (−20° C.) until analysis. TNF-α concentrations were quantified by the Human TNF-α ELISA MAX kit (BioLegend), according to the manufacturer's instructions. Duplicate readings for each standard, control and sample were recorded. The average absorbance for each set of standards, controls, and samples was calculated using a standard curve. Concentrations were determined by extrapolation on the standard curve.

tissue factor (TF) = test: LPS induced tissue factor activity in mononuclear cells, whole blood model; assay type: cell-based, human; conditions: 5 ng/ml E. coli LPS, 2 hours
E. coli K-12 = test: Bacterial cell viability, lux luminescence and OD600, with or without LPS; assay type: cell-based, Escherichia coli; conditions: co-incubation with 2.5 μM Aeromonas salmonicida LPS; for MIC, more than 50% reduction in optical density, E. coli, P + LPS: OD600, 5 hours; for MIC, more than 50% reduction in luminescence, E. coli, P + LPS: luminescence (cps), 5 hours
Text: (§1) To evaluate the effect of antimicrobial peptides on the viability of bacteria in a fast and reliable manner we used the lux CDABE operon from Photorhabdus luminescens as a reporter system in gram negative test bacteria and the modified luxABCDE operon in S. aureus (Vesterlund et al. 2004). Bacterial bioluminescence is directly dependent on metabolic activity, since reduction equivalents are needed to drive light emission. Any form of interruption of bacterial cell integrity or metabolism will therefore be detected as a reduction in light emission.
(§2) For the assay we used S. aureus (RN4220), E. coli K-12 and Salmonella enterica serovar typhimurium (ATCC 14028) transformed with the respective lux-operon containing plasmids (Vesterlund et al. 2004).
(§3) For each experiment a fresh colony was picked from Luria-Bertani plates supplemented with 10 μg/ml of erythromycin in case of S. aureus and with 100 μg/ml of ampicillin in case of E. coli and S. enterica serovar Typhimurium. Each colony was suspended in 5 ml of Müller-Hinton medium with appropriate antibiotics. The culture was incubated over night at 37° C. in a shaking incubator. The next morning 0.5 ml of this culture was transferred to 30 ml fresh MH medium in an Erlenmeyer-flask supplemented with the respective antibiotic. The flask was incubated (200 rpm shaking; 37° C.) until an OD600 of 0.5-0.8 was reached. The culture was then diluted to an OD600 of about 0.02-0.03 before transfer to the 96 well opaque plates with optical bottom (Packard ViewPlate) used for the assay.
(§4) The synthesized peptides were dissolved in water and aliquots frozen at −18° C. until use. Twofold dilutions of test peptides (final concentrations ranging from 0.31 to 80 μM) were directly prepared in 96 well microtiter plates in a volume of 10 μl in water. 90 μl is of indicator bacteria in MH medium were added directly to the prepared and pre-warmed (30 minutes at 37° C.) plate before starting the measurement in a Victor multiplate reader (Perkin Elmer) at 37° C. Both OD600 and luminescence in counts per second (cps) were followed over 5 hours in measuring intervals of 5 minutes. The plates where shaken before each measurement (20 sec.; 5 mm orbital shaking; 10 sec waiting). The growth curves and light emission curves were drawn and evaluated to determine the MIC for each indicator strain. The MIC was defined as the concentration of test compound causing more than 50% reduction in bioluminescence (cps) or optical density (OD600) after 5 hours, compared to the growth control. Cecropin P1 was used as positive control. The results (table 14a-b) confirm the results obtained in example 2, showing a pronounced antibacterial effect of the longest peptide fragments. […] The partial peptides P17 HC (1-20), both bromated and unbromated, inhibit growth only in higher concentrations.
(§5) A second plate with an otherwise similar setup (as described for the luminescence assay in example 3) was prepared, but with addition of Aeromonas salmonicida LPS to the peptide dilutions before pre-warming. The LPS end concentration in each well was approximately 2.5 μM.

[1] = system: Salmonella enterica serovar typhimurium (ATCC 14028); test: as above; assay type: cell-based; conditions: co-incubation with 2.5 μM Aeromonas salmonicida LPS; for MIC, more than 50% reduction in optical density, S. enterica, P + LPS: OD600, 5 hours; for MIC, more than 50% reduction in luminescence, S. enterica, P + LPS: luminescence (cps), 5 hours
Text: as §1, §2, §3, §4, §5

S. aureus (RN4220) = test: as above; assay type: cell-based, Staphylococcus aureus; conditions: co-incubation with 2.5 μM Aeromonas salmonicida LPS; for MIC, more than 50% reduction in optical density, S. aureus, P + LPS: OD600, 5 hours; for MIC, more than 50% reduction in luminescence, S. aureus, P + LPS: luminescence (cps), 5 hours
Salmonella enterica = test: Luminescence assay on dense culture (OD600 0.25-0.30), 3 hours; assay type: cell-based; conditions: highest concentration (80 μM)

Molecule	inhibition of LPS induced TNF-α response (TNF-α)	EC50 (TNF-α) [µM]	anti-TF activity (inhibition of LPS induced TF response) (tissue factor (TF))	MIC, more than 50% reduction in optical density, E. coli, P + LPS (E. coli K-12) [µM]	MIC, more than 50% reduction in luminescence, E. coli, P + LPS (E. coli K-12) [µM]	MIC, more than 50% reduction in optical density, S. enterica, P + LPS [1] [µM]	MIC, more than 50% reduction in luminescence, S. enterica, P + LPS [1] [µM]	MIC, more than 50% reduction in optical density, S. aureus, P + LPS (S. aureus (RN4220)) [µM]	MIC, more than 50% reduction in luminescence, S. aureus, P + LPS (S. aureus (RN4220)) [µM]	incubation time to full bactericidal effect (Salmonella enterica) [min]
GWFKKTFHKVSHAVKSGIHAGQRGCSALGF [P17 HC]	inhibits LPS induced TNF-α	2.8	inhibiting LPS induced TF response at low μM concentrations	5	5	2.5	5	40	20	15
SHAVKSGIHA [P17 HC (11-20)]	–	359	–	–	–	–	–	–	–	–
GWFKKTFHKVSHAVKSGIHA [P17 HC (1-20)]	–	20.3	–	80	40	10	5	–	–	–
CC[C@H](C)[C@H](NC(=O)CNC(=O)[C@H](CO)NC(=O)[C@H](CCCCN)NC(=O)[C@@H](NC(=O)[C@H](C)NC(=O)[C@H](Cc1c[nH]cn1)NC(=O)[C@H](CO)NC(=O)[C@@H](NC(=O)[C@H](CCCCN)NC(=O)[C@H](Cc1c[nH]cn1)NC(=O)[C@H](Cc1ccccc1)NC(=O)[C@@H](NC(=O)[C@H](CCCCN)NC(=O)[C@H](CCCCN)NC(=O)[C@H](Cc1ccccc1)NC(=O)C(Cc1c[nH]c2ccc(Br)cc12)NC(=O)CN)[C@@H](C)O)C(C)C)C(C)C)C(=O)N[C@@H](Cc1c[nH]cn1)C(=O)N[C@@H](C)C(=O)NCC(=O)N[C@@H](CCC(N)=O)C(=O)N[C@@H](CCCNC(=N)N)C(=O)NCC(=O)N[C@@H](CS)C(=O)N[C@@H](CO)C(=O)N[C@@H](C)C(=O)N[C@@H](CC(C)C)C(=O)NCC(=O)N[C@@H](Cc1ccccc1)C(=O)O (some centres unmarked) [P17 HC-Br] (HELM PEPTIDE1{G.[O=C(C(Cc1c[nH]c2ccc(Br)cc12)N[*:1])[*:2]].F.K.K.T.F.H.K.V.S.H.A.V.K.S.G.I.H.A.G.Q.R.G.C.S.A.L.G.F}$$$$V2.0)	inhibits LPS induced TNF-α	1.1	inhibiting LPS induced TF response at low μM concentrations	5	5	10	10	40	20	15

From patent US20100093642A1, “NOVEL POLYPEPTIDES” (priority 2006, published 2010)
